In patent publication US6365364:
No constants are given. Whether binding was seen depends on the method and setting. Some binding calls cover weakened binding; strength is not graded here.

The chains behind the UniProt entries cited, without tags or fusion partners. Where a name states a change or a piece, a line headed by the entry shows the natural chain unless it says otherwise. A line that says so, or that is headed by a name, gives the form on record, which may keep a tag or linker.
UniProt P00747: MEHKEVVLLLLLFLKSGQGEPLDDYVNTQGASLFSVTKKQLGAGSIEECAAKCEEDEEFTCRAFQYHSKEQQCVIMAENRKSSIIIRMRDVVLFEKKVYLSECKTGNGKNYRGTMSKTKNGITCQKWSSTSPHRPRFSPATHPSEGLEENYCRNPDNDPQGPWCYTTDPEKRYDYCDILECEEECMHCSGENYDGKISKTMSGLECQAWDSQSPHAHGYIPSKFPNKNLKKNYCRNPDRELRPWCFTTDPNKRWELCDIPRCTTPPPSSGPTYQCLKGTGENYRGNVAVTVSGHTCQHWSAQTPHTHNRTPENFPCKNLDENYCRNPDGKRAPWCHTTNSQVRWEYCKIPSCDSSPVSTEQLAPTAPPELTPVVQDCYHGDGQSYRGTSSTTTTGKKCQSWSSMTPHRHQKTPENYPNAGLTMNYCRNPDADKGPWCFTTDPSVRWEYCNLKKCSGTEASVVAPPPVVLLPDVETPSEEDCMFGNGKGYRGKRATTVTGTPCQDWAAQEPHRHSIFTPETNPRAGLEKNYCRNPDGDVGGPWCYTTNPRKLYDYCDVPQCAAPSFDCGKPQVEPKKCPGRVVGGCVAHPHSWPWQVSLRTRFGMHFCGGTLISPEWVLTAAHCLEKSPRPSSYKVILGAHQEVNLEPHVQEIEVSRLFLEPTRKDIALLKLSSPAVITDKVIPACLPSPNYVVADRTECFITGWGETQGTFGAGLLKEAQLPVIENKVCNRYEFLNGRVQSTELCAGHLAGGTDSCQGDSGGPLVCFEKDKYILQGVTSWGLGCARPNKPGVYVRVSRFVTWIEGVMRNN
Lys78-plasminogen (S741C) (P00747, form named): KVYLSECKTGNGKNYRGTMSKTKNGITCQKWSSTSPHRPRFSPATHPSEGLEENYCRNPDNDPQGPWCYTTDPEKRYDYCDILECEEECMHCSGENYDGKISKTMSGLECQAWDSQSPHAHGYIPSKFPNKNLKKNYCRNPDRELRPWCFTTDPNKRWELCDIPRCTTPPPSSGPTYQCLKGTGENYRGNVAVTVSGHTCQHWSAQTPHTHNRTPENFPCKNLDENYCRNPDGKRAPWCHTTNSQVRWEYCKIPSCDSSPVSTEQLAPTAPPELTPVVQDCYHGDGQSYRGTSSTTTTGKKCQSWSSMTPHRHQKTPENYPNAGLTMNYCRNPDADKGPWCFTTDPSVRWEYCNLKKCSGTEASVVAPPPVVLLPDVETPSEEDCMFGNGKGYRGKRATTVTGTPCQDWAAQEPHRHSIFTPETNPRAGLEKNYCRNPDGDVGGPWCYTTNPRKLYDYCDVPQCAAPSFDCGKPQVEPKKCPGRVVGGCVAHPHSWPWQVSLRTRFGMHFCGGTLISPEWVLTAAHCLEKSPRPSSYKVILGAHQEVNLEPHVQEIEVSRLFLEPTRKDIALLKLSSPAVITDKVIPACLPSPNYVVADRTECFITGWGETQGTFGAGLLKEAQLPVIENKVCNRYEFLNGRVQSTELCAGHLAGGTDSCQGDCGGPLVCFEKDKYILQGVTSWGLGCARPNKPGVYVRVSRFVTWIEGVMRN

Tests used:
[1] = target: T1, bovine bone osteonectin (bovine) (UniProt P13213); experiment: TIRFS competition; 2 µM peptide with 1 µM osteonectin against 100 nM FITC-glu-plasminogen
T1 sequence (looked up): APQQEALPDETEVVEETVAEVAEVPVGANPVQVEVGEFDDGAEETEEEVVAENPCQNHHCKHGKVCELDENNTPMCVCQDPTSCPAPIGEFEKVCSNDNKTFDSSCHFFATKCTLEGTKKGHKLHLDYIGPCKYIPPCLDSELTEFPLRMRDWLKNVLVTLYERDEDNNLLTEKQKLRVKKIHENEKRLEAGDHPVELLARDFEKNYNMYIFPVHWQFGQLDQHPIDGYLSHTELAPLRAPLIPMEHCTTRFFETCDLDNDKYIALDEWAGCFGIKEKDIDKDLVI

[2] = target: T1, bovine bone osteonectin (bovine); experiment: TIRFS competition
[3] = target: T1, bovine bone osteonectin (bovine); experiment: TIRFS; 100 nM plasminogen (S741C), 2 µM bone osteonectin, collagen type V well
[4] = target: T1, bovine bone osteonectin (bovine); experiment: TIRFS
[5] = target: T1, bovine bone osteonectin (bovine); experiment: TIRFS; plasmin added to FITC-glu-plasminogen and osteonectin on collagen type V

binding [1]	binding [2]	binding [3]	binding [4]	binding [5]	Substance
binds	binds				kringle 4 peptide (residues 354-439) from elastase digestion of human glu-plasminogen (from UniProt P00747 373-458)
		binds	binds		Lys78-plasminogen (S741C) (from UniProt P00747 97-809)
binds	binds				kringles 1-3 peptide (residues 79-353) from elastase digestion of human glu-plasminogen (from UniProt P00747 98-372)
			binds	binds	Lys78-plasminogen from plasma-derived glu-plasminogen, fluorescein labeled (from UniProt P00747 97-809)
